Reference: patent publication US20010039952A1, “ULTRASOUND ENHANCED CHEMOTHERAPY” (Walter A. Hacker, Ph. D, priority 1998, published 2001)
Some of these results come from one statement about several compounds together.

System: hepatic metastases
Details: ultrasound at less than 100 kHz and less than 50 W; hepatic artery cannulation

SMILES | anti-cancer drug utilized in combination with ultrasound (compared to treatment without ultrasound)
O=c1[nH]cc(F)c(=O)[nH]1 [fluorouracil] | less than 80%
COc1cccc2c1C(=O)c1c(O)c3c(c(O)c1C2=O)C[C@@](O)(C(=O)CO)C[C@@H]3O[C@H]1C[C@H](N)[C@H](O)[C@H](C)O1 [Adriamycin, Doxorubicin] | less than 80%
